Results on 23 targets are retold here after the supplement of paper PMC10849652.

The chains behind the UniProt entries cited, without tags or fusion partners. Where a name states a change or a piece, a line headed by the entry shows the natural chain unless it says otherwise.
UniProt Q99574: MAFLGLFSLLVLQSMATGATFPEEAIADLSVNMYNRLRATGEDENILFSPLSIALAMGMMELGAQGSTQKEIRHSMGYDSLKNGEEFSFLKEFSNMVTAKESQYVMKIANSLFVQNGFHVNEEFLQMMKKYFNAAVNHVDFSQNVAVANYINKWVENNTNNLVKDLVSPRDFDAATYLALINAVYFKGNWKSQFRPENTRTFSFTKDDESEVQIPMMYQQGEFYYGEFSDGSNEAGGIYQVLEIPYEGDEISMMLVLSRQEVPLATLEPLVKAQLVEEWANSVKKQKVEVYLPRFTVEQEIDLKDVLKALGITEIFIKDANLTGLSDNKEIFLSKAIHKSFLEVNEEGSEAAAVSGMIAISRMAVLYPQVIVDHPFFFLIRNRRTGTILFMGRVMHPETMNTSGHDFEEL
UniProt O43765: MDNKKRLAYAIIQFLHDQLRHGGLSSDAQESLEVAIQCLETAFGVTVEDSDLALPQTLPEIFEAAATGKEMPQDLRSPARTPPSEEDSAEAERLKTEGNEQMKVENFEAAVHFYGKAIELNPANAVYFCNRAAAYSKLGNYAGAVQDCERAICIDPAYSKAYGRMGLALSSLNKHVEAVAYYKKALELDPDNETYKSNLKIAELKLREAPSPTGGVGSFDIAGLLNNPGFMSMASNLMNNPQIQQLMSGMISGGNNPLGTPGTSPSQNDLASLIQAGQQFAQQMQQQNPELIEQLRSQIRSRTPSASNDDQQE
UniProt Q15427: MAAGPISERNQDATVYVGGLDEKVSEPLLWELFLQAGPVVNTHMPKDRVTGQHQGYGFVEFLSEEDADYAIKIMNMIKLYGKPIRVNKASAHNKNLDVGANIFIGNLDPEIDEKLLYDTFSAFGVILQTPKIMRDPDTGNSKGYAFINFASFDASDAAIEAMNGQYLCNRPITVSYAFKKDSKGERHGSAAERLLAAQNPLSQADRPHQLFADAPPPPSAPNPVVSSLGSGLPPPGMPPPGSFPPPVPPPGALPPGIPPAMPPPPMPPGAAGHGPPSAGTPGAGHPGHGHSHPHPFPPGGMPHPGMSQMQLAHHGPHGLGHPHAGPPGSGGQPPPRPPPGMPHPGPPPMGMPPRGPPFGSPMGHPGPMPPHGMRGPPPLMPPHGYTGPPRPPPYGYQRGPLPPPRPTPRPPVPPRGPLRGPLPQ
UniProt O75533, whole entry, looked up: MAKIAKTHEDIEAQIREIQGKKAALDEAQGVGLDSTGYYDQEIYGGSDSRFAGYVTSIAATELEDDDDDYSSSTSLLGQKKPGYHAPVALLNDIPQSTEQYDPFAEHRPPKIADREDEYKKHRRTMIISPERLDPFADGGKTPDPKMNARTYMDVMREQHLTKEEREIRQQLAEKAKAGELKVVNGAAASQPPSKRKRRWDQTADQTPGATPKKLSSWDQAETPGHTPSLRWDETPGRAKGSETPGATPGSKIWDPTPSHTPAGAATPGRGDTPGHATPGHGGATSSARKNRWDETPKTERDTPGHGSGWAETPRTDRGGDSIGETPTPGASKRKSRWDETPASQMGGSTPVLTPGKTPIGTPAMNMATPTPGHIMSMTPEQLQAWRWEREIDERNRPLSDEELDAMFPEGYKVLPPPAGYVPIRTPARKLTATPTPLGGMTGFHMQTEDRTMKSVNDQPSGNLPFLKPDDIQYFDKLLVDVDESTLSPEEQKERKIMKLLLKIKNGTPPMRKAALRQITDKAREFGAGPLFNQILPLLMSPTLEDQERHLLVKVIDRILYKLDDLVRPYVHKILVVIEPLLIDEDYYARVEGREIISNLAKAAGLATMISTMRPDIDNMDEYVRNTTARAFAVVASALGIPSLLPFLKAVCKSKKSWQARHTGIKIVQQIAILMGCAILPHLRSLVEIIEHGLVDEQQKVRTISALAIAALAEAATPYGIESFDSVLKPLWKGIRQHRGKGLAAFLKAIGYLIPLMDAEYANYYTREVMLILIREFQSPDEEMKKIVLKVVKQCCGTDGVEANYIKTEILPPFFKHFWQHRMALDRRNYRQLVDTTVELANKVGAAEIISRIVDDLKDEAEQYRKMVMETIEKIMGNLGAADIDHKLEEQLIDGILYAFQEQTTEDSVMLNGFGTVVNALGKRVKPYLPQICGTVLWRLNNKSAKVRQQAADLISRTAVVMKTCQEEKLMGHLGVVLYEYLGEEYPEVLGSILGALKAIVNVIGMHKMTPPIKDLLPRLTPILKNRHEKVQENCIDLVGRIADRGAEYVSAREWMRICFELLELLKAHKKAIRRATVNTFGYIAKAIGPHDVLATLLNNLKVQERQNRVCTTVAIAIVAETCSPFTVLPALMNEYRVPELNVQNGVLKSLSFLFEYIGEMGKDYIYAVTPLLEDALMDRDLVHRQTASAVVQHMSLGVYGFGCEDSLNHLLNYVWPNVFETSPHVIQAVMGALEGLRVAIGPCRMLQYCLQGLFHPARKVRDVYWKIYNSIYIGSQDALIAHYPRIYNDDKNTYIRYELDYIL
UniProt Q9GZR1: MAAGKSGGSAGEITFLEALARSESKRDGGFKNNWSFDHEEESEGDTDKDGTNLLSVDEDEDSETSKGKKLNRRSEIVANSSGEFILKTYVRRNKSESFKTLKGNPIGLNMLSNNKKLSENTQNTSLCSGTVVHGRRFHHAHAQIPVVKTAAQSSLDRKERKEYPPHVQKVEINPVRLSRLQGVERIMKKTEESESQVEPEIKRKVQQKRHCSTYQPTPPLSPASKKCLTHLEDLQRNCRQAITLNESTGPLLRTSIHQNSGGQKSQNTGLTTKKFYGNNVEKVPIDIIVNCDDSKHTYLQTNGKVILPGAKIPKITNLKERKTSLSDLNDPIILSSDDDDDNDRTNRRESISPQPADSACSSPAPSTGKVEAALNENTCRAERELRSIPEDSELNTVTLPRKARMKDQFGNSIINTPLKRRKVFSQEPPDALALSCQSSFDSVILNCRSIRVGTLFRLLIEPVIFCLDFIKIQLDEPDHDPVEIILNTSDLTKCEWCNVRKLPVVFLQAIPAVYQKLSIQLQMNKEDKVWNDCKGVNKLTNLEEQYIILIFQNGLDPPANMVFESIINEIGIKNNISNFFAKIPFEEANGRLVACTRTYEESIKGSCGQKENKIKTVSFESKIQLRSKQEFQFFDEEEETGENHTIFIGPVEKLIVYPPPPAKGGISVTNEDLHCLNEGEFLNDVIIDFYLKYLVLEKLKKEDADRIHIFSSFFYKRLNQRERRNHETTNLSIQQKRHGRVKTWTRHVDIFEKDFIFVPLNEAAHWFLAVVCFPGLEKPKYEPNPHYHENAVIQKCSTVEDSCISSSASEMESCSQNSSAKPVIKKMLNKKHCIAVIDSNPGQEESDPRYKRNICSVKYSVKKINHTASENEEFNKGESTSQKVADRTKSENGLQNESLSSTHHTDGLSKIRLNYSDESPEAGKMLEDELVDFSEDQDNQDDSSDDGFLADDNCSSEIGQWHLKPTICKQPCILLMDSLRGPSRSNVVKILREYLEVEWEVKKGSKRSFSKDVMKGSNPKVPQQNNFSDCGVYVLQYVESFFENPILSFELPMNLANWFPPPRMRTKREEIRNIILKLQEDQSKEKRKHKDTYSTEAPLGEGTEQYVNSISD
UniProt Q15428: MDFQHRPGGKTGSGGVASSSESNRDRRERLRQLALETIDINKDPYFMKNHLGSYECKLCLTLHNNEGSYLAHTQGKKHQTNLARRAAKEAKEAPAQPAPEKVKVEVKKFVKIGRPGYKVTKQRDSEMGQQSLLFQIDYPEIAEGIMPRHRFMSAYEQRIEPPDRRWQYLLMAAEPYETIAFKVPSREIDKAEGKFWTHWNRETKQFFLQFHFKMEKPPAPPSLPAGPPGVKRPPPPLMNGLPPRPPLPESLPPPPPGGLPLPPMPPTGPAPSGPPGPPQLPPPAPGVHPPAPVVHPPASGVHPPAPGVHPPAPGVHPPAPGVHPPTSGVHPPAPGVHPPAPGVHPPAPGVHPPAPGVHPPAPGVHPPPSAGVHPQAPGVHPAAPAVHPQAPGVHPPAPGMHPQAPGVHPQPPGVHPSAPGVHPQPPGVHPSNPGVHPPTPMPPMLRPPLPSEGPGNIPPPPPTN
UniProt Q99719: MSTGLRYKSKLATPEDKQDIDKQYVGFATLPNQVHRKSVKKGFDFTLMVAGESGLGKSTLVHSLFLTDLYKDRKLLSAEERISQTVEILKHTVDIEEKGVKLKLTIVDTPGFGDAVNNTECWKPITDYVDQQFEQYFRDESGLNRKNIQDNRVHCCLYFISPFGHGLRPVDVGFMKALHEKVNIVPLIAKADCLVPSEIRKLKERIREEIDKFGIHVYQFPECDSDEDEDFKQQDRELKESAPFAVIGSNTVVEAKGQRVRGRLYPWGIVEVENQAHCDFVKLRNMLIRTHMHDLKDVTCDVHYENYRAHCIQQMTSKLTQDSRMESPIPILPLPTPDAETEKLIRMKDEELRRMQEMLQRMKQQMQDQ
UniProt P50454: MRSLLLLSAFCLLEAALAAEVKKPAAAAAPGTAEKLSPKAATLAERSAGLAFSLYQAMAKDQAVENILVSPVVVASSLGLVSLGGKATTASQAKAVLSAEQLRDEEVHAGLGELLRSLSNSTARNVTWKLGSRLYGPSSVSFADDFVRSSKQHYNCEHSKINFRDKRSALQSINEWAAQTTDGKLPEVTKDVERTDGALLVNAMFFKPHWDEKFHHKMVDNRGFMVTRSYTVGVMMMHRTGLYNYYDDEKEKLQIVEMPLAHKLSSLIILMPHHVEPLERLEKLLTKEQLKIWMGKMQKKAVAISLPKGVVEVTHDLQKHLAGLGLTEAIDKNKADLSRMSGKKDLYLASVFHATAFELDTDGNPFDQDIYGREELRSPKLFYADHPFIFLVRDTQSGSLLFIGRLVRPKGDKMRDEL
UniProt Q9Y3B4: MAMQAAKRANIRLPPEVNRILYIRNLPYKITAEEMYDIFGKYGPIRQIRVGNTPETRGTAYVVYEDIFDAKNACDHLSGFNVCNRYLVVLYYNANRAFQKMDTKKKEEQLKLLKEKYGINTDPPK
UniProt Q9UBV2: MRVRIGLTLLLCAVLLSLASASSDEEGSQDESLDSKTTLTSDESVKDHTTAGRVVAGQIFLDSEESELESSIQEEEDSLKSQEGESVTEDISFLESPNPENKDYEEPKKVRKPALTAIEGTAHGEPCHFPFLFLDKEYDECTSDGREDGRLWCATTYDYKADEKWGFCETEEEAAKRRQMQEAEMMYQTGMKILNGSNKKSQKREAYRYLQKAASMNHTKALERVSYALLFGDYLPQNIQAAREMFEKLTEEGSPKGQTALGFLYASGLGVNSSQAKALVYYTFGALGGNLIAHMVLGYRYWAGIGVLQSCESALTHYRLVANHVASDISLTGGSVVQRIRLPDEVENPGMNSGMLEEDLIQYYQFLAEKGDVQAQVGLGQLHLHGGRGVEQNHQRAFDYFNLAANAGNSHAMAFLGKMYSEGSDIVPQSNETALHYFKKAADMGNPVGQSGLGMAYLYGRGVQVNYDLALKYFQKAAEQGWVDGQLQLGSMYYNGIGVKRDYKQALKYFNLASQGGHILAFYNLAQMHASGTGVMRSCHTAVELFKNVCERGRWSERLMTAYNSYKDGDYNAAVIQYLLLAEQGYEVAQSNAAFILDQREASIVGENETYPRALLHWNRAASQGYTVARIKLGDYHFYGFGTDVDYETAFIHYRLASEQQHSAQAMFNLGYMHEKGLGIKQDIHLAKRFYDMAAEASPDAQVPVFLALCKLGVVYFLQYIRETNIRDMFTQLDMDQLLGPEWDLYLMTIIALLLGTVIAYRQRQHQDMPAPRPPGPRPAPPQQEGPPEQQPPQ
UniProt Q6P4A7: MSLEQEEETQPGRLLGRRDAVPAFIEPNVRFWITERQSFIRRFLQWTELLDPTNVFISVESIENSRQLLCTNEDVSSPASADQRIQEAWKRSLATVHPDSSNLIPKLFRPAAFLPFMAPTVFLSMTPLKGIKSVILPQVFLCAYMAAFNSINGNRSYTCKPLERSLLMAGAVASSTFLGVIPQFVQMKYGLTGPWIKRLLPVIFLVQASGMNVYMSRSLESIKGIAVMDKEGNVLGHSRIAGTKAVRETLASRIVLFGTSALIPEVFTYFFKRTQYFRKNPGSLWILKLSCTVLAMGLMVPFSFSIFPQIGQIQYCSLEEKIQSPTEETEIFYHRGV
UniProt P05543: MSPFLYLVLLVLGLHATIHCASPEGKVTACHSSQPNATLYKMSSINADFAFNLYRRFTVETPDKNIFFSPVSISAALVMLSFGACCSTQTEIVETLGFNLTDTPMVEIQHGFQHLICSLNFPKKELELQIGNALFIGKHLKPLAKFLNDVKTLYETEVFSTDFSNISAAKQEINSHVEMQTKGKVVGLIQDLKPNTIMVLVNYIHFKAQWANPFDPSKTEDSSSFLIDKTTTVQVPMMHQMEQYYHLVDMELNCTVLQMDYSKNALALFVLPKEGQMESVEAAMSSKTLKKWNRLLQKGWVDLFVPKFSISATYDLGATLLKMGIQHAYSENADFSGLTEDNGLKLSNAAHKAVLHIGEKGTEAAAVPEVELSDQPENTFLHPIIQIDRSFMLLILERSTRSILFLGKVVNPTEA

Some of the results follow.

Compound in this assay: C#Cc1cccc(Nc2ncnc3cc(OCCOC)c(OCCOC)cc23)c1 [erlotinib]
The assay is described as follows: log2 fold change, soluble protein after heating vs DMSO (PISA); higher = thermal stabilisation; K562 cells, 10 uM, 30 min; active = over 0.2 and 3.5 SD of the protein, either way, in both replicates (recomputed). An outline of the steps: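 Soluble protein was defined as the supernatant after 21,000xg for 90 min. It came from K562 cells at 2×10^6 cells/mL given 10 μM compound for 30 min, heated in aliquots for 3 min across 48°C-58°C, pooled, and extracted in PBS with 0.5% NP-40 at 4°C, and was quantified by TMTpro 16plex LC-MS/MS with equalised channel sums. Thermal stability against control samples, from duplicates, is reported as log2 fold change.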
For SF3A1 (UniProt Q15459), the log2 fold change was inactive: -0.002.
Regarding SERPINI1 (UniProt Q99574), the log2 fold change was inactive: 0.022.
On to SGTA (UniProt O43765), for which the log2 fold change is inactive: -0.069.
The figure for SF3B4 (UniProt Q15427) is inactive: -0.103; for SF3B1 (UniProt O75533) it is inactive: 0.006.
For SFSWAP isoform 2 (UniProt Q12872) the value was inactive: -0.023; for SENP6 (UniProt Q9GZR1), inactive: 0.028; for SEMA4C (UniProt Q9C0C4), inactive: 0.017.
The figure for SIRT6 (UniProt Q8N6T7) is inactive: 0.019; for SERGEF (UniProt Q9UGK8) it is inactive: 0.006.
Take SERPINB8 (UniProt P50452): the log2 fold change was inactive: 0.024.
For SF3A2 (UniProt Q15428) the value was inactive: -0.014; for SHMT1 (UniProt P34896), inactive: 0.028.
The figure for SEPTIN9 (UniProt Q9UHD8) is inactive: 0.033; for SEPTIN5 (UniProt Q99719) it is inactive: 0.009; for SIDT2 isoform 2 (UniProt Q8NBJ9) it is inactive: 0.007.
For SH3BP5L (UniProt Q7L8J4) the value was inactive: 0.023; for SERPINH1 (UniProt P50454), inactive: -0.027; for SF3B6 (UniProt Q9Y3B4), inactive: 0.038.
Consider SEL1L (UniProt Q9UBV2), for which the log2 fold change is inactive: -0.021.
SFXN4 (UniProt Q6P4A7): the log2 fold change is inactive: -0.027.
For SERPINA7 (UniProt P05543) the value was inactive: -0.118; for SEPTIN6 (UniProt Q14141), inactive: -0.081.
